PubChem BioAssay AID1159578 – Peter MacCallum Cancer Centre, 2015
The deposit covers about 18,000 reagents; this is a random part of them. About 1,030 of all reagents (5.7%) were called active. 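Inactive calls also include pools with fewer than 3300 nuclei, whose migration was not assessed.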 Raw values vary from plate to plate and are shown uncorrected. Not all columns of the deposit are shown. Reagent sequences are not shown.

Aim: 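siRNA pools altering how lymphatic endothelial cells close a scratch wound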 (primary screen)
System: human lymphatic endothelial cells
Reagent: siRNA pool against human genes, 40 nM
Duration: 48 h after transfection
Read-out: 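Cells stained with dye and imaged after a scratch; covered wound area and nuclei counted, duplicates averaged, migration set against mock wells and turned into a robust z-score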
Reading the numbers: migration robust z-score: higher = faster migration into the scratch; nuclei per well: higher = more cells in the well
Call rule: 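Migration changed when robust z exceeds 2 or falls below -2 and mean nuclei number is at least 3300; otherwise not called changed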
Calls: active = migration changed; inactive = no migration change, or too few cells

ZNF22-AS1 [SID255364259] gave migration robust z-score 0.71; nuclei per well, duplicate mean 4728; inactive.
KLK11 [SID255355521] showed migration robust z-score -2.7; nuclei per well, duplicate mean 4930; active.
Against USH1G [SID255362622], the values are migration robust z-score -1.3; nuclei per well, duplicate mean 5192; inactive.
After knock-down of OR2T10 [SID255362741], the record shows migration robust z-score -0.6; nuclei per well, duplicate mean 4960; inactive.
Against RAB29 [SID255353930] the deposit lists migration robust z-score -0.75; nuclei per well, duplicate mean 5794; inactive.
With knock-down of FLRT3 [SID255356424], the screen gave migration robust z-score 0.87; nuclei per well, duplicate mean 7162; inactive.
Knock-down of GPX3 [SID255350020] came out at: migration robust z-score 0.05; nuclei per well, duplicate mean 5432; inactive.
Depletion of STBD1 [SID255353951] came out at: migration robust z-score -0.55; nuclei per well, duplicate mean 6050; inactive.
For DNAJC9 [SID255356091] the deposit lists migration robust z-score -0.43; nuclei per well, duplicate mean 5086; inactive.
Against PBX3 [SID255351431] the deposit lists migration robust z-score 0.72; nuclei per well, duplicate mean 5775; inactive.
Against RAD17 [SID255352019], the entry reads migration robust z-score -0.99; nuclei per well, duplicate mean 5110; inactive.
After knock-down of ATP10A [SID255359335], the record shows migration robust z-score 0.6; nuclei per well, duplicate mean 7012; inactive.

2 entries from above, ordered by “migration robust z-score”, high to low:
OR2T10 [SID255362741] | migration robust z-score = -0.6; nuclei per well, duplicate mean = 4960; call = inactive
USH1G [SID255362622] | migration robust z-score = -1.3; nuclei per well, duplicate mean = 5192; call = inactive
